Hit rate of the full screen: of about 400,000 compounds, about 5,500 (1.4%) were called active. Inconclusive results, whose numbers are uncertain, are shown with a selection of clear calls. The call rests on the fitted dose curve; in most records, active means well fitted cell-killing curve with a large enough effect; inconclusive means small, poorly fitted or top-dose-only effect, or effect the other way; inactive means flat fitted curve, though single readings scatter. Where the call is inconclusive, the potency comes from a doubtful curve fit.
Assay: qHTS assay for MDR1-selective chemotherapeutics: Primary screen using the parental adenocarcinoma cell KB-3-1; further: nearly all actives have a fitted effect of over 60% in size
Conditions: KB-3-1 viability, CellTiter-Glo ATP luminescence, 72 h; activity change, negative = cytotoxic: at 46.1 µM (top of the series)
Procedure, shortened: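 Viability of parental KB-3-1 cells, measured by CellTiter-Glo luminescence, followed a 72 h incubation at 37 °C with pinned compounds in phenol-red-free DMEM containing 10% FBS.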
With `C=CCC1(CC=C)CCCN1C(=O)c1cc(COc2cccc(C(F)(F)F)c2)on1` the Potency was inconclusive: 29.1 µM [cytotoxic, single point]. For `CCCc1n[nH]c2c1/C(=N/O)CC(c1ccccc1)C2` (stereo not drawn), the Potency was active: 25.9 µM. In the case of `NC(=O)N=Nc1c2[nH]c3ccccc3nc-2c2ccccc12`, the Potency was inconclusive: 29.1 µM [cytotoxic, single point]. In the case of `Cc1ccc(NC(=O)CNc2ccc(Cl)c(Cl)c2)cc1S(=O)(=O)N(C)C`, the Potency was inconclusive: 16.4 µM [cytotoxic, single point]. In the case of `CCOc1ccccc1NC(=O)c1cccc(NC(=O)c2ccco2)c1`, the Potency was active: 2.59 µM. For `Cc1ccccc1CC(=O)Nc1ccc(S(=O)(=O)N2CCN(C)CC2)cc1`, the Potency was inconclusive: 32.6 µM [rising, partial curve, poor fit]. For `COc1ccc(Cc2c(-c3cccc(Cl)c3)nc3ccc(C)cn23)c(C)c1`, the Potency was inconclusive: 25.9 µM [cytotoxic, single point]. For `COc1cc(C(CC(=O)Nc2cccc(C(C)=O)c2)N2Cc3ccccc3C2=O)cc(OC)c1OC` (stereo not drawn), the Potency was inconclusive: 3.26 µM [cytotoxic, partial curve, poor fit]. In the case of `Cc1ccc(S(=O)(=O)NCC(=O)N(CC(=O)NCC2CCCO2)Cc2ccco2)cc1` (stereo not drawn), the Potency was “inactive”. In the case of `CC(C)CC(=O)c1c[nH]c(C(=O)NCc2cccnc2)c1`, the Potency was inconclusive: 29.1 µM [rising, single point]. For `Cc1cc(N2CCCCC2)nc(NCc2ccccc2)n1`, the Potency was active: 16.4 µM. With `Oc1ccccc1Nc1nc(NCC2CCCO2)c2ccccc2n1` (stereo not drawn) the Potency was inconclusive: 18.4 µM [cytotoxic, single point]. For `O=C(COCc1cc(-c2cccs2)on1)N1CCN(c2ccc(F)cc2)CC1`, the Potency was “inactive”. With `CCOc1ccc(-n2cnnn2)cc1S(=O)(=O)N1CCC(C)CC1C` (stereo not drawn) the activity change, negative = cytotoxic was inconclusive: 1.4%. With `Cc1onc(-c2ccccc2)c1C(=O)NC1CCCCC1C` (stereo not drawn) the Potency was “inactive”. With `CCOc1cc2c(cc1O)CCC1C2CCC2(C)C(O)CCC12` (stereo not drawn) the Potency was inconclusive: 0.0073 µM [cytotoxic, full curve, poor fit]. For `COc1cc(C(=O)Nc2ccc(-n3c(C)nc4ccccc4c3=O)cc2)cc(OC)c1OC`, the Potency was “inactive”. For `COc1ccc(NC(=O)c2[nH]c(C)c(C(C)=O)c2C)cc1S(=O)(=O)N1CCOCC1`, the Potency was inconclusive: 20.6 µM [rising, single point]. For `Cc1ccc(C(NC(=O)NCCCN2CCOCC2)=C(Cl)Cl)cc1F`, the Potency was inconclusive: 14.1 µM [cytotoxic, partial curve, poor fit]. For `Cc1cccc(C)c1OCC(=O)N/N=C/c1cccnc1`, the Potency was “inactive”. For `O=C(Cc1cccs1)NNC(=S)NC(=O)c1ccc(F)c(F)c1`, the Potency was inconclusive: 20.6 µM [cytotoxic, single point]. In the case of `CCn1c(C)c(C)c2cc(C(=O)N3CCCC3)ccc21`, the Potency was inconclusive: 29.1 µM [rising, single point]. In the case of `COc1ccc(/C=c2/sc3n(c2=O)C(c2ccccc2OC)C2=C(N=3)c3ccccc3CC2)cc1O` (stereo not drawn), the Potency was inconclusive: 20.6 µM [cytotoxic, single point]. In the case of `CCCCc1c(-c2ccc(F)cc2F)ncn1CCc1ccccc1OC`, the Potency was inconclusive: 29.1 µM [cytotoxic, single point]. For `COCCN(C(=O)C1CC(=O)N(Cc2ccc(C)cc2)C1)c1c(N)n(CC(C)C)c(=O)[nH]c1=O` (stereo not drawn), the Potency was inconclusive: 14.6 µM [cytotoxic, partial curve, poor fit]. For `CCOC(=O)C1CCN(C(c2ccc(OCC)cc2)c2c(O)cc(C)n(CCOC)c2=O)CC1` (stereo not drawn), the Potency was “inactive”. With `Cc1ccc(C=Nc2ccccc2C(N)=O)cc1` the Potency was active: 7.31 µM. For `O=C(CN1CC[n+]2c(-c3cccs3)csc21)c1ccc(-c2ccccc2)cc1`, the Potency was inconclusive: 29.1 µM [cytotoxic, single point]. For `O=C1CCC(C(=O)OCc2nnc(-c3ccccc3)o2)=NN1`, the Potency was “inactive”. With `CC(=O)N1CCN(C(=O)CCNS(=O)(=O)c2ccccc2)CC1` the Potency was “inactive”. For `O=C(Nc1ccc(N2CCOCC2)c(Cl)c1)c1cccc(F)c1`, the Potency was “inactive”. With `Cc1cccc(C(=O)NCCc2nc3ccccc3n2Cc2ccc(Cl)cc2)c1` the Potency was inconclusive: 29.1 µM [cytotoxic, single point]. For `Cc1ccc(NC(=S)NNC(=O)Cn2nc(C(F)F)cc2C(F)F)cc1`, the Potency was “inactive”. In the case of `O=C(C[n+]1ccc(/C=C/c2ccccc2)cc1)c1ccc2c(c1)OCCO2`, the Potency was active: 11.6 µM. For `CNC(=S)N(CCO)Cc1cc2cc3c(cc2[nH]c1=O)OCCO3`, the Potency was inconclusive: 29.1 µM [cytotoxic, single point]. For `O=C(NCCO)/C(=C\c1cccc([N+](=O)[O-])c1)NC(=O)c1ccco1`, the Potency was inconclusive: 29.1 µM [rising, single point]. For `O=S(=O)(NCc1ccc(Cl)cc1)c1ccc2[nH]c3c(c2c1)CCCC3`, the Potency was inconclusive: 29.1 µM [cytotoxic, partial curve, poor fit]. In the case of `COc1cc2c(cc1OC)C1(Nc3c-2c(-c2ccccc2)nn3-c2ccccc2)C(=O)Nc2ccccc21` (stereo not drawn), the Potency was inconclusive: 29.1 µM [cytotoxic, single point]. In the case of `COc1cc(C(=O)NCCOc2cc(C)cc(C)c2)cc(OC)c1OC`, the Potency was active: 4.61 µM. For `C=CCn1c(C)cc(C2=NNC(=NC(C)(C)C)SC2)c1C`, the Potency was inconclusive: 23.1 µM [cytotoxic, single point]. In the case of `COC(=O)c1ccccc1NS(=O)(=O)c1ccc2c(c1)oc(=O)n2C`, the Potency was inconclusive: 29.1 µM [cytotoxic, single point]. For `COc1ccc(CC2(CO)CCN(Cc3cnc(-c4ccccc4C)nc3)CC2)cc1`, the Potency was inconclusive: 23.1 µM [cytotoxic, single point]. In the case of `O=C(NCc1ccccc1F)C(=O)NCC(c1ccco1)S(=O)(=O)c1cccs1` (stereo not drawn), the Potency was “inactive”. With `CC(=O)n1cc(Nc2ccc([N+](=O)[O-])cc2)c2ccccc21` the Potency was “inactive”. For `CC(C)CNC(=S)N1CCN(c2nc(-c3ccc(Cl)cc3)cs2)CC1`, the Potency was inconclusive: 29.1 µM [cytotoxic, single point]. With `O=C(N/N=C/c1ccccc1O)C1CCCC1` the Potency was inconclusive: 29.1 µM [cytotoxic, single point]. For `Cc1ccc(Cn2c(=O)n(CCCCC(=O)NCc3ccccc3Cl)c(=O)c3ccccc32)cc1`, the Potency was inconclusive: 29.1 µM [cytotoxic, single point]. For `O=C1CC2(CCN(C(=O)C3CC(=O)N(c4ccc(F)cc4)C3)CC2)Oc2ccccc21` (stereo not drawn), the Potency was inconclusive: 3.26 µM [cytotoxic, partial curve, poor fit]. For `O=C(CS(=O)(=O)c1ccc(Cl)cc1)Nc1nnc(-c2cccs2)o1`, the Potency was “inactive”. For `CCOc1ccccc1Nc1sc(C(=O)c2ccccc2)c(N)c1S(=O)(=O)c1ccc(C)cc1`, the Potency was inconclusive: 29.1 µM [cytotoxic, single point]. With `COc1ccc2oc(C(=O)N(Cc3ccco3)Cc3cccs3)c(C)c2c1` the Potency was inconclusive: 20.6 µM [cytotoxic, single point]. In the case of `Cc1cc(C)c[n+](C2=C([O-])c3ccccc3C(=O)/C2=N\S(=O)(=O)c2cccs2)c1`, the Potency was inconclusive: 10.3 µM [cytotoxic, partial curve, poor fit]. With `COc1ccc(CN(C)CCCn2cnc3c(OC)ncnc32)cc1OC` the Potency was inconclusive: 29.1 µM [rising, single point]. For `Cc1ccc(/C=C/C(=O)N2CCC(Cc3ccccc3)CC2)cc1`, the Potency was “inactive”. For `CC(NC(=O)c1ccc(-c2ccccc2)cc1)C(c1ccccc1)N1CCOCC1` (stereo not drawn), the Potency was inconclusive: 23.1 µM [cytotoxic, partial curve, poor fit]. For `COc1ccc(CN(C)C(=O)CCc2ccc(S(=O)(=O)N3CCCCCC3)cc2)c(OC)c1`, the Potency was inconclusive: 20.6 µM [cytotoxic, single point]. For `COC(=O)CSC1=C(C#N)C(=O)NC(c2ccccc2)S1` (stereo not drawn), the Potency was inconclusive: 29.1 µM [cytotoxic, single point]. In the case of `CCOC(=O)c1c(CN(C)C)n(-c2ccccc2)c2cc(Br)c(OC)cc12`, the Potency was inconclusive: 16.4 µM [cytotoxic, single point]. For `COCCCn1c(C(=O)NC2CCCCC2)cc2c(=O)n3cccc(C)c3nc21`, the Potency was inconclusive: 14.6 µM [cytotoxic, partial curve, poor fit]. In the case of `CCN1/C(=C/c2ccc3cc(C)ccc3[n+]2CC)Sc2ccccc21`, the Potency was active: 1.64 µM. In the case of `CCOc1ccc(-c2oc3ccc(C)cc3c(=O)c2O)cc1`, the Potency was inconclusive: 16.4 µM [cytotoxic, single point]. With `O=C(NCCCN1CCOCC1)c1cc(-c2ccc(F)cc2)no1` the Potency was inconclusive: 29.1 µM [cytotoxic, single point]. With `Cc1nc(NC(N)=S)sc1C(=O)Nc1ccccc1` the activity change, negative = cytotoxic was inconclusive: 5.87%. With `COc1ccc(N2CCN(CCCNC(=O)c3cc4sccc4n3C)CC2)cc1` the Potency was inconclusive: 23.1 µM [cytotoxic, single point]. In the case of `CC(CC(=O)Nc1ccc(F)c([N+](=O)[O-])c1)c1ccccc1` (stereo not drawn), the Potency was “inactive”. In the case of `CCOC(=O)c1c(S(=O)(=O)N2CCC(C(=O)Nc3ncccc3C)CC2)c(C)n(C)c1C`, the Potency was “inactive”. With `CCN1C(=O)[C@H]2[C@@H](c3ccc(-c4ccc(Cl)c(Cl)c4)c(OC)c3)N[C@@](Cc3ccccc3)(C(=O)OC)[C@H]2C1=O` the Potency was inconclusive: 32.6 µM [cytotoxic, single point]. In the case of `O=C(Nc1ccc(F)cc1)C1CCN(S(=O)(=O)c2ccc3c(c2)CCCN3C(=O)C2CCC2)CC1`, the Potency was inconclusive: 14.6 µM [cytotoxic, partial curve].
On the % scale 0 is the no-effect control and ±100 the full control effect; potency means the concentration at half of the fitted maximal effect.
